Results reported in PMC5448812, “Distinct DNA-binding surfaces in the ATPase and linker domains of MutLγ determine its substrate specificities and exert separable functions in meiotic recombination and mismatch repair” (PLoS Genetics, 2017).
For at least one entry, the source does not settle the construct or the ends of the probe. For some assays here: A weaker result is weaker than the reference pair of the same experiment. For some assays here: At least one verdict was read from the data and is not stated in words by the source.

What was measured:
[1] = tested on: MutLgamma double mutants (Mlh1 mutant + Mlh3 mutant) (Saccharomyces cerevisiae (S288c strain SKY4158)); assay: EMSA; conditions: more affected than single mutants, EMSA: 25 mM Tris-HCl pH 7.5, 15% glycerol, 100 mM NaCl, 2 mM DTT, 5 mM EDTA, 1 mg/ml BSA, 30 min 30 C, 1 nM DNA, recombinant protein, protein details: N-terminal 6xHis-2xFlag on Mlh1, label: 5'-32P when used as probe
HisFlag-Mlh1 + Mlh3 [2] = assay: competition with a labelled probe; conditions: EMSA: 25 mM Tris-HCl pH 7.5, 15% glycerol, 100 mM NaCl, 2 mM DTT, 5 mM EDTA, 1 mg/ml BSA, 30 min 30 C, 1 nM DNA, recombinant protein, protein details: N-terminal 6xHis-2xFlag,none
HisFlag-Mlh1 + Mlh3 [3] = assay: FeBABE footprinting; conditions: FeBABE-conjugated, recombinant protein, protein details: N-terminal 6xHis-2xFlag,none, label: 3'-biotin on strand 1, folded or branched DNA, letters put together from the description
[4] = tested on: Mlh1 untagged + HisFlag-Mlh3; assay: FeBABE footprinting; conditions: FeBABE-conjugated, recombinant protein, label: 3'-biotin on strand 1, folded or branched DNA, letters put together from the description
[5] = segment 2 probe, phosphorothioates in strands 2 and 3 (segment 2)

CTAGTATAGAGCCGGCGCGCCATGTCTAGATAGCGTTAGGTCTGCCGAATAGTACTACTCGGATCCCGAGCGAACCACGC / GCGTGGTTCGCTCGGGATCCGAGTAGTACTATTCGGCAGAGGATTCGAATAGGCCTAATCGAATTCCGCCATCGATGCAC / GTGCATCGATGGCGGAATTCGATTAGGCCTATTCGAATCCAGACGCGAGTAGATCTTCACGGTACCCGCGGTTACCCGTG / CACGGGTAACCGCGGGTACCGTGAAGATCTACTCGCGTCTCCTAACGCTATCTAGACATGGCGCGCCGGCTCTATACTAG [HJ80 (cb095-098)]
binding result ([1]; folded or branched DNA): binds more weakly
binding result (HisFlag-Mlh1 + Mlh3 [2]; cold HJ vs labeled ssDNA, label: 5'-32P when used as probe, folded or branched DNA): binds more weakly

CTAGTATAGAGCCGGCGCGCCATGTCTAGATAGCGTTAGGTCTGCCGAATAGTACTACTCGGATCCCGAGCGAACCACGC / GCGTGGTTCGCTCGGGATCCGAGTAGTACTATTCGGCAGAGGATTCGAATAGGCCTAATCGAATTCCGCCATCGATGCAC / GTGCATCGATGGCGGAATTCGATTAGGCCTATTCGAATCCAGACGCGAGTAGATCTTCACGGTACCCGCGGTTACCCGTG / CACGGGTAACCGCGGGTACCGTGAAGATCTACTCGCGTCTCCTAACGCTATCTAGACATGGCGCGCCGGCTCTATACTAG [HJ+3 (cb256, 347, 365, 98)]
binding result (HisFlag-Mlh1 + Mlh3 [3]; segment 3 probe, cleavage decreases >~25 bp from HJ center, phosphorothioates in strands 2 and 3 (segment 3)): binds
binding result ([4]; segment 3 probe, phosphorothioates in strands 2 and 3 (segment 3)): binds

CTAGTATAGAGCCGGCGCGCCATGTCTAGATAGCGTTAGGTCTGCCGAATAGTACTACTCGGATCCCGAGCGAACCACGC / GCGTGGTTCGCTCGGGATCCGAGTAGTACTATTCGGCAGAGGATTCGAATAGGCCTAATCGAATTCCGCCATCGATGCAC / GTGCATCGATGGCGGAATTCGATTAGGCCTATTCGAATCCAGACGCGAGTAGATCTTCACGGTACCCGCGGTTACCCGTG / CACGGGTAACCGCGGGTACCGTGAAGATCTACTCGCGTCTCCTAACGCTATCTAGACATGGCGCGCCGGCTCTATACTAG [HJ+4 (cb256, 345, 363, 98)]
binding result (HisFlag-Mlh1 + Mlh3 [3]; segment 4 probe, cleavage decreases >~25 bp from HJ center, phosphorothioates in strands 2 and 3 (segment 4)): binds
binding result ([4]; segment 4 probe, phosphorothioates in strands 2 and 3 (segment 4)): binds

TTTTTTTTTTTTTTTTTTTTTTTTTTTTTTTTTTTTTTTTTTTTTTTTTT [poly-dT 50 nt]
binding result (HisFlag-Mlh1 + Mlh3 [2]; vs labeled poly-dT 80 nt, single-stranded DNA): binds more weakly

TTTTTTTTTTTTTTTTTTTTTTTTTTTTTTTTTTTTTTTTTTTTTTTTTTTTTTTTTTTTTTTTTTTTTTTTTTTTTTTT [ssDNA80 (cb099, poly-dT)]
binding result ([1]; single-stranded DNA): binds more weakly
binding result (HisFlag-Mlh1 + Mlh3 [2]; cold ssDNA vs labeled HJ, label: 5'-32P when used as probe, single-stranded DNA): binds more weakly

CTAGTATAGAGCCGGCGCGCCATGTCTAGATAGCGTTAGGTCTGCCGAATAGTACTACTCGGATCCCGAGCGAACCACGC / GCGTGGTTCGCTCGGGATCCGAGTAGTACTATTCGGCAGAGGATTCGAATAGGCCTAATCGAATTCCGCCATCGATGCAC / GTGCATCGATGGCGGAATTCGATTAGGCCTATTCGAATCCAGACGCGAGTAGATCTTCACGGTACCCGCGGTTACCCGTG / CACGGGTAACCGCGGGTACCGTGAAGATCTACTCGCGTCTCCTAACGCTATCTAGACATGGCGCGCCGGCTCTATACTAG [HJ+2 (cb256, 349, 367, 98)]
binding result (HisFlag-Mlh1 + Mlh3 [3]; [5]): binds
binding result [4, 5]: binds
